Drawing on article PMC3510490, “Structure of Actin-related protein 8 and its contribution to nucleosome binding” (Nucleic Acids Research, 2012), this text covers binding for 2 substances.

By UniProt entry, the sequences of proteins in these tests, tags left out.
UniProt Q9H981: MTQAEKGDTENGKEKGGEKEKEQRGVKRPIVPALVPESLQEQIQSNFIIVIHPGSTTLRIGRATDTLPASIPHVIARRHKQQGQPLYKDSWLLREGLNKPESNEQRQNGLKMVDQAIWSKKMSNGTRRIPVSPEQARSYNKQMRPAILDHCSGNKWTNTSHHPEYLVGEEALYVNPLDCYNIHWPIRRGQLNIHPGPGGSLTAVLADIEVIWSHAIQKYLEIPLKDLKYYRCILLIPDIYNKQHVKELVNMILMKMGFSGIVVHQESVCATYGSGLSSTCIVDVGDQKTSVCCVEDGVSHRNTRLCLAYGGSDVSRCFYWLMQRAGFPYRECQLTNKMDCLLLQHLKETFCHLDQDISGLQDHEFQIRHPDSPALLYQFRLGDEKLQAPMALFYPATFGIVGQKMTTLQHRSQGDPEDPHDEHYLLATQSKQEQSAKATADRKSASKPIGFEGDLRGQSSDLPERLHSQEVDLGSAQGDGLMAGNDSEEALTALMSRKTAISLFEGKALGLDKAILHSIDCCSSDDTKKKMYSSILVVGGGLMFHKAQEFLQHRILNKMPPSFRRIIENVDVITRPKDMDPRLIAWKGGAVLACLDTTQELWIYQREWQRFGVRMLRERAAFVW
UniProt P80428: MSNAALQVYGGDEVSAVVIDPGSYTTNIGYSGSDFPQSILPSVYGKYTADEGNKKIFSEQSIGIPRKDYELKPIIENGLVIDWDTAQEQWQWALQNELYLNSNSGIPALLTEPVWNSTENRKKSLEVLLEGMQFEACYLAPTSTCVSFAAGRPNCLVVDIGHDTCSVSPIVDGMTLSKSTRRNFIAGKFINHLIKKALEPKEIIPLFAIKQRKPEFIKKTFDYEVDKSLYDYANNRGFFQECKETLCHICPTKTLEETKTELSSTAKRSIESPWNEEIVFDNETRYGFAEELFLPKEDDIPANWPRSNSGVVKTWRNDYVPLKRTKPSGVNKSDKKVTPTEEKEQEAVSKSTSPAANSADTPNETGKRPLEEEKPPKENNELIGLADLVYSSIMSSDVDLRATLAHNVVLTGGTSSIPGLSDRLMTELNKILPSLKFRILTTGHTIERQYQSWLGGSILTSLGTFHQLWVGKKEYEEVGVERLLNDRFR

Results are given in words; binding and its absence hold for the method and conditions named.

Assay [1] addresses Full-length Homo sapiens Arp8 (human) (UniProt Q9H981). As to the kind of experiment: SAXS; human Arp8 at 6.15 mg/ml (full-length) or 1.5 mg/ml (truncated construct), 20°C; Porod volume and CRYSOL curves of monomer and dimer; both purified.
Assay [2] has the same target. Kind of assay: static light scattering (SLS); Arp8, Arp4 and sub-complex I in solution; conditions not told (Supplementary Figure S8); both purified.
The target of assay [3] is Saccharomyces cerevisiae Arp4 (S. cerevisiae) (UniProt P80428). The assay is described as above.

Regarding “Full-length Homo sapiens Arp8 (from UniProt Q9H981 1-624)”, the figures for the binding entry in assay [1] and in assay [2] were “no binding (tested: 6.15 mg/ml)” and “no binding”, respectively. Turning to “Saccharomyces cerevisiae Arp4 (from UniProt P80428 1-489)”, the binding entry in assay [3] is on record as “no binding”.
